Assay [1] has as its target LINGO-1 (human). Briefly: ELISA and FACS. In general terms: In an ELISA, binding on a coated surface is turned into a signal by an enzyme label.
For assay [2], the target named is LINGO-1 (human). Briefly: LINGO-1 ELISA.
The target of assay [3] is LINGO-1 (human). Briefly: ELISA.

Numbering of substitutions follows the chain as printed. No constants are given. Whether binding was seen depends on the method and setting. A result given as binding can be weak or reduced; the word gives no strength.

B1: Li62 Fab (Fab, V domains shown)
VH: EVQLLESGGGLVQPGGSLRLSCAASGFTFSIYPMFWVRQAPGKGLEWVSWIGPSGGITKYADSVKGRFTISRDNSKNTLYLQMNSLRAEDTATYYCAREGHNDWYFDLWGRGTLVTVSS
VL: DIQMTQSPSFLSASVGDSVAITCRASQDISRYLAWYQQRPGKAPKLLIYDASNLQTGVPSRFSGSGSGTDFTFTITSLQPEDFGTYYCQQYDTLHPSFGPGTTVDIK
Consider B1, for which the binding result in the assay with LINGO-1 (human) [1] is given as “binds”.

B2: Li113 Fab (Li62 variant C02, VH CDR3 SEQ ID NO:30) (Fab, V domains shown)
VH: B1 VH with H101T, N102Y, F106L
VL: B1 VL
In the case of B2, the binding entry with LINGO-1 (human) [2] is on record as “binds”.

B3: PEG-Li33 Fab' (Fab, V domains shown)
VH: B1 VH
VL: DIQMTQSPGTLSLSPGERATLSCRASQSVSSYLAWYQQKPGQAPRLLIYDASNRATGIPARFSGSGSGTEFTLTISSLQSEDFAVYYCQQYDKWPLTFGGGTKVEIKR
modifications: 10 kDa methoxy-polyethyleneglycol maleimide on the 2 free hinge Cys residues
Consider B3, for which, in the assay with LINGO-1 (human) [3], the binding result is “binds”.

B4: Li62 (agly) (antibody, V domains shown)
VH: B1 VH
VL: B1 VL
In the case of B4, in the assay with LINGO-1 (human) [1], the binding entry was “binds”.
